# Laboratory results published in patent publication US8211901B2, “Naphthamide derivatives as multi-target protein kinase inhibitors and histone deacetylase inhibitors” (Shenzhen Chipscreen Biosciences Ltd., priority 2009, dated 2012).
# At least one structure is not confirmed: it was looked up by name or label, or the drawing left a doubt.
# Tested on: total HDAC enzyme (HeLa extract)
# Assay: In vitro inhibition of total HDAC enzyme activity (HDAC Fluorimetric Assay/Drug Discovery Kit)
# Format: biochemical
# Method: Measurement of In Vitro Inhibition of Total HDAC Enzyme Activity:
# The in vitro inhibition of total HDAC enzyme was determined by HDAC Fluorimetric Assay/Drug Discovery Kit (BIOMOL) according to manufacture's instruction. • 1. Add Assay buffer, diluted trichostatin A or test inhibitor to appropriate wells of the microtiter plate. Following table lists examples of various assay types and the additions required for each test.
# • 2. Add diluted HeLa extract or other HDAC sample to all wells except those that are to be “No Enzyme Controls” (Blank). • 3. Allow diluted Fluor de Lys™ Substrate and the samples in the microtiter plate to equilibrate to assay temperature (25° C.). • 4. Initiate HDAC reactions by adding diluted substrate (25 μl) to each well and mixing thoroughly. • 5. Allow HDAC reactions to proceed for desired length of time and then stop them by addition of Fluor de Lys™ Developer (50 μl). Incubate plate at room temperature (25° C.) for 10-15 min. • 6. Read samples in a microtiter-plate reading fluorimeter capable of excitation at a wavelength in the range 350-380 nm and detection of emitted light in the range 440-460 nm. Measurement of In Vivo Inhibition of HDAC Subtype Activity: […]
smiles,measurement,value
"Nc1cc(F)ccc1NC(=O)c1ccc(CNC(=O)/C=C/c2cccnc2)cc1 [CS055, Chidamide, reference compound]",% inhibition of total HDAC enzyme activity at 30 μM,50.4%
